Compound in the assay: CC1Cc2ccccc2N1C(=O)C1CCCN(C1)C(=O)CCl (mixture of isomers) [TRIM25 ligand 11 (diastereomer mixture)]
In words: probe-labelled cysteine peptide fold change vs DMSO (competition) (log2 fold change); higher = less target engagement (more negative = stronger competition). The settings on record: THP-1, incubation time: 4 h.

The chains behind the UniProt entries cited, without tags or fusion partners. Where a name states a change or a piece, a line headed by the entry shows the natural chain unless it says otherwise.
UniProt Q8TAT6: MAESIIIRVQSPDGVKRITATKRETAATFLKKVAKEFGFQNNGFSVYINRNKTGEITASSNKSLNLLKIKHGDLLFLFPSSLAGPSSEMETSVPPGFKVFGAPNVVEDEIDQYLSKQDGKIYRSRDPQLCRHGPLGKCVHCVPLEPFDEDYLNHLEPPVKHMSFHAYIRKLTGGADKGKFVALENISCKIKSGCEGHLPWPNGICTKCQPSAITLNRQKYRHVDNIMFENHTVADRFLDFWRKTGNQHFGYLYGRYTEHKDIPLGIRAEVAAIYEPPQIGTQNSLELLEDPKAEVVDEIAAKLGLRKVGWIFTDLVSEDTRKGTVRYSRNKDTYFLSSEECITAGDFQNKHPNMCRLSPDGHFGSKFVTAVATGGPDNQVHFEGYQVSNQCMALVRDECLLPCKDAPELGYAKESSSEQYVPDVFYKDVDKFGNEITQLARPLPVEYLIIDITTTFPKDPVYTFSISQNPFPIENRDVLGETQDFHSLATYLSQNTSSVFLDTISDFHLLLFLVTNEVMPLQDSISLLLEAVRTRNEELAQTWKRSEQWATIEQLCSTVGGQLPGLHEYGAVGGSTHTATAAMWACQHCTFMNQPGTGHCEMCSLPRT
UniProt Q8NDH3: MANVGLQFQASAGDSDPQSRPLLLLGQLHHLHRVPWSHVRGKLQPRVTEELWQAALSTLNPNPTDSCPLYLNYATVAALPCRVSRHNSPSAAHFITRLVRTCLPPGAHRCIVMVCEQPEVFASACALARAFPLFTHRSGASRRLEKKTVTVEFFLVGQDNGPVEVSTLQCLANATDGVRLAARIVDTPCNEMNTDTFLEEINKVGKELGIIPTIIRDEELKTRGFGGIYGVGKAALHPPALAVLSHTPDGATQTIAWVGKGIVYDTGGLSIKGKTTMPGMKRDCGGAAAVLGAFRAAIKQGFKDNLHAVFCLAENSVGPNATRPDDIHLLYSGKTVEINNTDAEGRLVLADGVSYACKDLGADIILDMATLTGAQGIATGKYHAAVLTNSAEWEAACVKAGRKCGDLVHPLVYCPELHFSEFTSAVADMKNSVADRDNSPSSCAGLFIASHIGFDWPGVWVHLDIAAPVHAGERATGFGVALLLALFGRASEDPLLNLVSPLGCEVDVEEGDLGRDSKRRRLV
UniProt O43847: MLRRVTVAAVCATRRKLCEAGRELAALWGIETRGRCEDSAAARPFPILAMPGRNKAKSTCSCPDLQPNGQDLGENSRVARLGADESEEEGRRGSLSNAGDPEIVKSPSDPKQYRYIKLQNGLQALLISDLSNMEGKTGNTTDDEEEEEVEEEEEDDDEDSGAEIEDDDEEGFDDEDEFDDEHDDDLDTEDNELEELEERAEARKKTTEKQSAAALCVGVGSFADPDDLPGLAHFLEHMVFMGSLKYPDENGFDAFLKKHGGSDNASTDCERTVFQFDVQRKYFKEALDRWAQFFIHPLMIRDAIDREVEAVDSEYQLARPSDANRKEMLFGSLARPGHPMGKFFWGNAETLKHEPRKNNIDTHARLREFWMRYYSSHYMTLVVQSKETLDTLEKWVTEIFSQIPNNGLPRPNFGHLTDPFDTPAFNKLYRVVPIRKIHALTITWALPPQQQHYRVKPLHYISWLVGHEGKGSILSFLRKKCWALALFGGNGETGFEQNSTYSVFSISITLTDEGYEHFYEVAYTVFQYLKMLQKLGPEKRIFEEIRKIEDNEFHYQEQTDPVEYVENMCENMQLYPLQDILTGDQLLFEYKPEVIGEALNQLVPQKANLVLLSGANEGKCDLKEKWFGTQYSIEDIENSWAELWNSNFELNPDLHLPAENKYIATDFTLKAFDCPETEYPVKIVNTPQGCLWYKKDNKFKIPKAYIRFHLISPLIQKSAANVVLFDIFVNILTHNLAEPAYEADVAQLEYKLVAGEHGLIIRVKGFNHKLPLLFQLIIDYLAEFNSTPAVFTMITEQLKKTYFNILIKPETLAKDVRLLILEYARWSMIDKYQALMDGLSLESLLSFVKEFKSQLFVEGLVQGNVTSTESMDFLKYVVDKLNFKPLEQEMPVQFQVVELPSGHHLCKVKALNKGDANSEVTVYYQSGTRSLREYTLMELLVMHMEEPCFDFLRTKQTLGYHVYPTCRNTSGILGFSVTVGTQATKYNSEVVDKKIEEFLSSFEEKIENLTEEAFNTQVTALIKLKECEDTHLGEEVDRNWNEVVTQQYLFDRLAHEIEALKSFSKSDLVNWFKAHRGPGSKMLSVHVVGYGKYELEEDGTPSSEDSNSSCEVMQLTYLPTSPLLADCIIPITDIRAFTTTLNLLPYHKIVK
UniProt Q5SY16: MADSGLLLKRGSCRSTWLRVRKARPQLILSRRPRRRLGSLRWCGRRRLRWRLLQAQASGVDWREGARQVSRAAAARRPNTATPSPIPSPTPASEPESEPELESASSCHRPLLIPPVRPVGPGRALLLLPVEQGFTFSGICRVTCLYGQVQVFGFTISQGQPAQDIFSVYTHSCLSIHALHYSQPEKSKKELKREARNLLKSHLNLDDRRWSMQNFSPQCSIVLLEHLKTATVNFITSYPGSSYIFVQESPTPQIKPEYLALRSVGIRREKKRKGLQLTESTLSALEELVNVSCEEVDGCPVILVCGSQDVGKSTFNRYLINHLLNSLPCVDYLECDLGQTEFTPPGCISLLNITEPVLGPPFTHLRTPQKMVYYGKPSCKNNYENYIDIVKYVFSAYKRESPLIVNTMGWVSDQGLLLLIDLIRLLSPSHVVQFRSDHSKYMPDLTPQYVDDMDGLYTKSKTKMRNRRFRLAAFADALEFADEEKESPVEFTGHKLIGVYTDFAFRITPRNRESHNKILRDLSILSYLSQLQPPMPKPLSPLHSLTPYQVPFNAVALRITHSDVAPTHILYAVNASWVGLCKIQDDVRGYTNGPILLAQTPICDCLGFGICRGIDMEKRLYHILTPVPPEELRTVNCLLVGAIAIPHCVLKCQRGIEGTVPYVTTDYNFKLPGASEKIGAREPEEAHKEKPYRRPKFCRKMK
UniProt P04150: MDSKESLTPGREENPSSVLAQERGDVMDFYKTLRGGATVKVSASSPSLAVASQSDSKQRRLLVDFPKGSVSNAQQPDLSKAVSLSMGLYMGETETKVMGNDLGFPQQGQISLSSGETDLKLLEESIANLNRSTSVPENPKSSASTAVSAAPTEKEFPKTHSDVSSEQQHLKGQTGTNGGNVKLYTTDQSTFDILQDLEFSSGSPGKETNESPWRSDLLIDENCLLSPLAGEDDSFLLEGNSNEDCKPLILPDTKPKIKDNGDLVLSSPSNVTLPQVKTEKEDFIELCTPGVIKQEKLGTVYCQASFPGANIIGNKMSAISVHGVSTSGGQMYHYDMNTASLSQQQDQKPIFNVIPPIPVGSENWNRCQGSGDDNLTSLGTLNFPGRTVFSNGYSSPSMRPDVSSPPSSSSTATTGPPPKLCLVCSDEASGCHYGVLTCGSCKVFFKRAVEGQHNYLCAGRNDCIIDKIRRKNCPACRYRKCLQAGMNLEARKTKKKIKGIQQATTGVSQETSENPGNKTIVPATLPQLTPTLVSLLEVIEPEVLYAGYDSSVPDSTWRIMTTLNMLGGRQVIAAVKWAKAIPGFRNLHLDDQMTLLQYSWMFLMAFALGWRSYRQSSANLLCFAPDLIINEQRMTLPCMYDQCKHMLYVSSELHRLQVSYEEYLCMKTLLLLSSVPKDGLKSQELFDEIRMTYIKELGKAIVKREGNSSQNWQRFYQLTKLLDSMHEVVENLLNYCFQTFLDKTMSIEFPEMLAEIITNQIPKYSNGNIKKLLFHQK
UniProt Q9H6R4: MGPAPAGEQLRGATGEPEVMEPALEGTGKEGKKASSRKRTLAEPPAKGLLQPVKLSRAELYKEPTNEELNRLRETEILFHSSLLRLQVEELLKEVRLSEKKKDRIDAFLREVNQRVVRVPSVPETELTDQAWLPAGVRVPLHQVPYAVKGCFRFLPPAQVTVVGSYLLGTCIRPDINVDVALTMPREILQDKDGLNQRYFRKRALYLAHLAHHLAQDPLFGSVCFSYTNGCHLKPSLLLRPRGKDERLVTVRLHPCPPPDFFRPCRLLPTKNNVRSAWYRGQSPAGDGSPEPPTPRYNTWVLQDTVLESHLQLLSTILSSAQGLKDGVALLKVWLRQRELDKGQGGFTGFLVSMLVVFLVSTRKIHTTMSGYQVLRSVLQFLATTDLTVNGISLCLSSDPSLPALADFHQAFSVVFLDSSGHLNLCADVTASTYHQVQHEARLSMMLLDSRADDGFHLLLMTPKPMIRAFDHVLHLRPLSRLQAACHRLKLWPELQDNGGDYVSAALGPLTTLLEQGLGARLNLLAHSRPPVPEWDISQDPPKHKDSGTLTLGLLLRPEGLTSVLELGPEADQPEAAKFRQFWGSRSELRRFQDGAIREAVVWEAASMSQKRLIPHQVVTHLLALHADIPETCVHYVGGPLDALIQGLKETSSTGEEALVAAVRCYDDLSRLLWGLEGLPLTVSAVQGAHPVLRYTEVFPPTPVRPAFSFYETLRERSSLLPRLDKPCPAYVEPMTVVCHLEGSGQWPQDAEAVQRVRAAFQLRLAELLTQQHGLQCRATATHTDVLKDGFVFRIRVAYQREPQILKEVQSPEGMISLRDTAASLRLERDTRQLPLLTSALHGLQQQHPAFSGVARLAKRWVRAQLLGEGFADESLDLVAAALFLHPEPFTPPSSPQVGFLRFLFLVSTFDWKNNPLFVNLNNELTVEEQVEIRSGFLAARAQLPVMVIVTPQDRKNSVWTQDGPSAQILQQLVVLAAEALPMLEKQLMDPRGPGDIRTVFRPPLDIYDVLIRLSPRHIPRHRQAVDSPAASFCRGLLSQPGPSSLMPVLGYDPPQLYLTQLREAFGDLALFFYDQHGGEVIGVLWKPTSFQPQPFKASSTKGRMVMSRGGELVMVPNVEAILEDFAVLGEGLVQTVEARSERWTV
UniProt P55786: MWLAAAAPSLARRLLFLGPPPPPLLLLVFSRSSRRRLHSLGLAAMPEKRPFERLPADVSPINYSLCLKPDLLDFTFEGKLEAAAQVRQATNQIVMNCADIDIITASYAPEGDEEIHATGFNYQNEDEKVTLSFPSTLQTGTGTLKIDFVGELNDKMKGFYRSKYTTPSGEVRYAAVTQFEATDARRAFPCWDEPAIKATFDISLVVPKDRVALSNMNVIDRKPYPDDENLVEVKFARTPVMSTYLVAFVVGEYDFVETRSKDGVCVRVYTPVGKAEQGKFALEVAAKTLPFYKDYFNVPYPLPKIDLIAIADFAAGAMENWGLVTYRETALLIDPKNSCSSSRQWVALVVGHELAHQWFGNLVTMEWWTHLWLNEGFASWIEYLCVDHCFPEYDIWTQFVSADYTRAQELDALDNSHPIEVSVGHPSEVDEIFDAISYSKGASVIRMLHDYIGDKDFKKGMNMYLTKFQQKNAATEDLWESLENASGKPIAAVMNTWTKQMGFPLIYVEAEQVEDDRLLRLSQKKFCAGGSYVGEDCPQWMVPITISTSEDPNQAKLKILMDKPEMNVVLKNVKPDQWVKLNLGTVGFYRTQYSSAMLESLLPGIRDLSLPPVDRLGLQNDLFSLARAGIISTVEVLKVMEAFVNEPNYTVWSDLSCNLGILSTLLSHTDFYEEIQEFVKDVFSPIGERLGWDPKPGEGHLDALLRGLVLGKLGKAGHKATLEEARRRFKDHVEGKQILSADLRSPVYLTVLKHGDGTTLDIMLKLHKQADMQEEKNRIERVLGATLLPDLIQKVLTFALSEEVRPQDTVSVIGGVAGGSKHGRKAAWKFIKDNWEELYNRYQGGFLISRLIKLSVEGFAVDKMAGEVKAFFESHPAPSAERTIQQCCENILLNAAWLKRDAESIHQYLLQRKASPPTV
UniProt Q08J23, whole entry, looked up: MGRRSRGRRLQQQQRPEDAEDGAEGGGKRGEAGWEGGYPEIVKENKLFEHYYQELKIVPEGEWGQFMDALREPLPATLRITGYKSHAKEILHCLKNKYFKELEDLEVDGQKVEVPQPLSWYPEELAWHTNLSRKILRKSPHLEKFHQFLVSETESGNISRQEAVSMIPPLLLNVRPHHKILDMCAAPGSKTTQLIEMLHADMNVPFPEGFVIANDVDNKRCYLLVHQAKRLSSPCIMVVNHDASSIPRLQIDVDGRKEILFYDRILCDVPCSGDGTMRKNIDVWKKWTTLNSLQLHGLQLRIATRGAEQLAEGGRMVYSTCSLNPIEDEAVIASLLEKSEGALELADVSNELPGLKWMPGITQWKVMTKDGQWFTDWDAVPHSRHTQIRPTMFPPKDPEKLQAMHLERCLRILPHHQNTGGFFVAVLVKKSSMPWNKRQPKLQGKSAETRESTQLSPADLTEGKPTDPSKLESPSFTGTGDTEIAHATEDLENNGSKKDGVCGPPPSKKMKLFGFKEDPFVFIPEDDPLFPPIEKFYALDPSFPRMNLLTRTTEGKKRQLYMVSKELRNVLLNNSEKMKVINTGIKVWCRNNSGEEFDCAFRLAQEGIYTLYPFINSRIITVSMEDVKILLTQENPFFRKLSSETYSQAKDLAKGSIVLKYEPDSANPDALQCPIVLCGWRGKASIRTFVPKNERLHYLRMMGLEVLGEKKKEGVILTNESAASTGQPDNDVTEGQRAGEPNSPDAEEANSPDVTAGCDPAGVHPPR

Experimental findings from the supplement of paper PMC12067093, “Discovery and optimisation of a covalent ligand for TRIM25 and its application to targeted protein ubiquitination” (Chemical Science, 2025) are described below.

Some of the results follow.
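Note: competitive chemoproteomic profiling in live THP-1 cells with an iodoacetamide desthiobiotin (IA-DTB) probe, comparing probe-labelled peptide intensities in compound-treated cells against DMSO-treated controls.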

Turning to “NPLOC4_Q8TAT6_341_DTYFLSSEECITAGDFQNK (UniProt Q8TAT6)”, the “probe-labelled cysteine peptide fold change” value is, setting by setting: (10 µM) 0.13; (50 µM) 0.142.
For “NPEPL1_Q8NDH3_414_CGDLVHPLVYCPELHFSEFTSAVADMK (UniProt Q8NDH3)”, in that order: 0.0209 and -0.363.
For “NLN_Q9BYT8_451_YNHAACFGLQPGCLLPDGSR (UniProt Q9BYT8)”, the “probe-labelled cysteine peptide fold change” value (10 µM) is 0.193 and the “probe-labelled cysteine peptide fold change” value (50 µM) was 0.181.
For “NSD3_Q9BZ95_1292_SACASTNEEK (UniProt Q9BZ95)”, in that order: -0.0117 and -0.0332.
In the same order, the values of “NSUN5_Q96P11_308_YHEVHYILLDPSCSGSGMPSR (UniProt Q96P11)” are -0.725 and -0.0597.
For “NRDC_O43847_620_ANLVLLSGANEGKCDLK (UniProt O43847)”, in that order: -0.523 and -0.114.
As for “NOTCH1_P46531_1293_VNDFHCECR (UniProt P46531)”, the “probe-labelled cysteine peptide fold change” value is 0.0147 (10 µM) and -0.0613 (50 µM).
In the same order, the values of “NPEPL1_Q8NDH3_397_YHAAVLTNSAEWEAACVK (UniProt Q8NDH3)” are 0.0265 and 0.0187.
For “NQO2_P16083_223_EEPIPCTAHWHFGQ (UniProt P16083)”, in that order: 0.213 and 0.0669.
For “NT5C2_P49902_121_VDAYGNLLVCAHGFNFIR (UniProt P49902)”, in that order: 0.129 and 0.15.
With “NOL9_Q5SY16_605_GYTNGPILLAQTPICDCLGFGICR (UniProt Q5SY16)”, the “probe-labelled cysteine peptide fold change” value came to 0.436 (10 µM) and 0.153 (50 µM).
In the same order, the values of “NR3C1_P04150_457_AVEGQHNYLCAGR (UniProt P04150)” are 0.0882 and -0.0223.
For “NOL8_Q76FK4_1020_EEGTPWNEDCGK (UniProt Q76FK4)”, in that order: -0.0925 and -0.0722.
In the same order, the values of “NOL6_Q9H6R4_256+265_LHPCPPPDFFRPCR (UniProt Q9H6R4)” are 0.00764 and -0.0545.
As for “NSD1_Q96L73_2508_GCVSDPLQTSGK (UniProt Q96L73)”, the “probe-labelled cysteine peptide fold change” value runs as follows: (10 µM) -0.0099; (50 µM) -0.228.
For “NSF_P46459_264_GILLYGPPGCGK (UniProt P46459)”, in that order: -0.0125 and 0.000825.
In the same order, the values of “NPLOC4_Q8TAT6_138_CVHCVPLEPFDEDYLNHLEPPVK (UniProt Q8TAT6)” are 0.163 and 0.169.
In the same order, the values of “NOL11_Q9H8H0_557_CNNCDQELNK (UniProt Q9H8H0)” are 0.00569 and -0.00426.
For the target “NR2C2AP_Q86WQ0_76_RGCLEGSQGTQALHK (UniProt Q86WQ0)”, the “probe-labelled cysteine peptide fold change” value runs as follows: (10 µM) 0.0576; (50 µM) 0.147.
In the same order, the values of “NOP56_O00567_142_GLTDLSACK (UniProt O00567)” are 0.0105 and -0.0898.
For “NLRP3_Q96P20_941_LLCEGLLHPDCK (UniProt Q96P20)”, in that order: -0.00499 and -0.0623.
Regarding “NPEPPS_P55786_887_TIQQCCENILLNAAWLK (UniProt P55786)”, the “probe-labelled cysteine peptide fold change” value is -0.024 (10 µM) and -0.179 (50 µM).
In the same order, the values of “NRDC_O43847_18_VTVAAVCATRRKLCEAGR (UniProt O43847)” are -0.146 and -0.193.
For “NSUN2_Q08J23_184_ILDMCAAPGSK (UniProt Q08J23)”, in that order: -0.187 and -0.297.
In the same order, the values of “NR3C1_P04150_463_NDCIIDK (UniProt P04150)” are -0.275 and 0.0998.
On to “NMD3_Q96D46_71_YFQPPGTWIQCALESR (UniProt Q96D46)”, for which the “probe-labelled cysteine peptide fold change” value was determined as 0.191 (10 µM) and 0.0902 (50 µM).
For “NOL6_Q9H6R4_256_LHPCPPPDFFRPCR (UniProt Q9H6R4)”, in that order: 0.0181 and 0.0433.
For “NOL9_Q5SY16_637_TVNCLLVGAIAIPHCVLK (UniProt Q5SY16)”, in that order: -0.12 and -0.178.
For “NRDC_O43847_1027_ECEDTHLGEEVDRNWNEVVTQQYLFDR (UniProt O43847)”, in that order: 0.162 and 0.0767.
With “NPM3_O75607_79_VEEEDDAEHVLALTMLCLTEGAKDECNVVEVVAR (UniProt O75607)”, the “probe-labelled cysteine peptide fold change” value is -0.083 (10 µM) and 0.00371 (50 µM).
In the same order, the values of “NPEPL1_Q8NDH3_504_ASEDPLLNLVSPLGCEVDVEEGDLGR (UniProt Q8NDH3)” are -0.151 and -0.106.
In the same order, the values of “NONO_Q15233_208_CSEGSFLLTTFPR (UniProt Q15233)” are -0.0331 and 0.0275.
In the same order, the values of “NLRX1_Q86UT6_779_DLLLHDQCQITTLR (UniProt Q86UT6)” are 0.0756 and 0.0636.
As for “NKRF_O15226_386_VFLQDHCLAEGYGTK (UniProt O15226)”, the “probe-labelled cysteine peptide fold change” value (10 µM) amounted to 0.179 and the “probe-labelled cysteine peptide fold change” value (50 µM) was found to be 0.0819.
In the same order, the values of “NSUN2_Q08J23_673+678_YEPDSANPDALQCPIVLCGWR (UniProt Q08J23)” are 0.0479 and 0.0634.
Take “NLE1_Q9NVX2_152_FWDLSTETPHFTCK (UniProt Q9NVX2)”: the “probe-labelled cysteine peptide fold change” value is 0.00814 (10 µM) and 0.198 (50 µM).
With “NPM3_O75607_105_LSCQPMLSLDDFQLQPPVTFR (UniProt O75607)”, the “probe-labelled cysteine peptide fold change” value runs as follows: (10 µM) 0.134; (50 µM) 0.446.
For “NMNAT1_Q9HAN9_111_LEASDCDHQQNSPTLERPGRK (UniProt Q9HAN9)”, in that order: -0.0614 and -0.245.
For “NT5DC1_Q5TFE4_10+22_AQHFSLAACDVVGFDLDHTLCR (UniProt Q5TFE4)”, in that order: 0.0181 and 0.119.
For “NPEPPS_P55786_66_LPADVSPINYSLCLKPDLLDFTFEGK (UniProt P55786)”, the “probe-labelled cysteine peptide fold change” value by setting is: (10 µM) 0.0411; (50 µM) -0.151.
In the same order, the values of “NRBP1_Q9UHY1_340_LLAAHCIVGHQHMIPENALEEITK (UniProt Q9UHY1)” are 0.0635 and 0.0281.
